Assay results as given in PubChem BioAssay AID1347423 (Functional Genomics Laboratory (NCATS/FGL), 2020).
The whole screen tested about 52,000 sequences, of which about 210 (0.4%) were called active.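 Rule for the calls: active = gene whose silencing raises cell survival under the drug, median off-target-corrected z-score across its silencing RNAs 2 or more; inactive = the rest.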 The list shows a part of the results.

Test: Resistance to Poly (ADP-Ribose) Polymerase inhibitor: Gene Identification via Genome-wide siRNA Screen
Settings: mouse BRCA2 R2336H ES cells, olaparib, CellTiter-Glo viability; stronger effect = higher value
Summary of the method: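 Mouse BRCA2 R2336H ES cells were reverse-transfected with siRNA (20 nM final), treated at 48 h with 500 nM olaparib, and read by CellTiter-Glo after 72 h. Scores: MAD-based z per siRNA, median per gene, seed off-target correction.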

Row | Sequence | z-score
1 | GGUCUAUCCUACAGCUGAGTT against Prlpc2 | inactive: 1.2
2 | CCAAGUGCUCAGCUAAACUTT against Gm397 | inactive: -1.71
3 | GGAAAAGGUUAAACUUUGATT against Cenpc1 | inactive: -0.514
4 | GGAGGAGCAGGAACAGUAUTT against B3gnt6 | inactive: -0.875
5 | CGGGAUGUCAAAGUGUCAUTT against Tmem14a | inactive: 0.504
6 | GGAAUUCGUAAAGAUUGCATT against 9530027K23Rik | inactive: 0.157
7 | GGAGGAGGCUGACUACUUUTT against 6530404F10Rik | inactive: 0.431
8 | GCCAAGAAAGAAGGCGUAUTT against Cox6c | inactive: 0.618
9 | GGCACUUGAACAGAGUAGUTT against 4930513F16Rik | inactive: -0.288
10 | GCUGGCUUUGAUUUAUGGATT against Prkar1a | inactive: -0.891
11 | GGAAAUGGCAAAUUCAACUTT against Cspg2 | inactive: 0.952
12 | GCACAACGUAAAAACAUCATT against Cova1 | inactive: 2.33
13 | CCGAAAUAAGGCUAGCUCATT against Rfxdc1 | inactive: 1.33
14 | GGACAGGAAGAAAAGAAACTT against 4930518C23Rik | inactive: -0.455
15 | GUAUUGUCAUCAUCAUUUCTT against Olfr910 | inactive: 0.581
16 | GGAAUGACUUUUGAGACAGTT against Cyp1a1 | inactive: 1.69
17 | GGUUCAGAUGUCUGAUAAATT against 4833420N02Rik | inactive: 1.61
18 | GGGAACGCAACAUUUCUCCTT against 1810049H13Rik | inactive: -1.2
19 | GGAUGACUCAAUAUUUGUCTT against V1rb8 | inactive: -0.511
20 | GGACUCAUUGUCUUUAACATT against Amy1 | inactive: -1.38
21 | GGAGCUGUGGGAGAAGAACTT against 5730469M10Rik | inactive: 0.428
22 | GCUUAAUGAAUCAUCGGUUTT against Itga3 | inactive: -0.285
23 | GCGAGAGUGAAAACAUCCATT against C030014K22Rik | inactive: -1.01
24 | CGAGCUGGAUCUGUUUAGATT against 2510027N19Rik | inactive: 0.014
25 | GGAGUUUGGAACAAGAGAUTT against Prkcsh | inactive: -0.737
26 | GGUUUAAAAUAGGUUUGGATT against AI597479 | inactive: 0.0989

Row | Sequence | z-score
27 | GCCGUACGAAAAAUAAGCATT against Rps7 | inactive: -2.37
28 | GGCCGUUCAUUUCCUCAUCTT against Galr2 | inactive: 0.144
29 | GCUAUGAAGAAAAAUCGGATT against 4832428D23Rik | inactive: 0.793
30 | CCAGAGUCUUUGGUAAUGCTT against Krtap3-3 | inactive: -0.438
31 | GGCUGAUGACACUUACACATT against V1rg11 | inactive: 1.02
32 | CCUGCCUAGAUGUUUCAGCTT against Ifna13 | inactive: 0.611
33 | GGGUGAAAGAAAGAAAGAATT against Plp1 | inactive: -0.904
34 | GGCUGGCUUUGAACUCAAUTT against Zfp36 | inactive: -1.07
35 | GGAAGACUGUAACACCAUCTT against 4921520G13Rik | inactive: 0.402
36 | CCUCUUUAGUCCUCUAAAATT against Rab15 | inactive: 0.275
37 | GCAUGAUGACAGGAAGGACTT against Olfr527 | inactive: 0.0208
38 | GGCCAUAAAGUUAACAACATT against Tbx19 | inactive: -0.252
39 | GGAAAUUUUGAACCUGACATT against D12Ertd771e | inactive: -0.773
40 | GGAUGCGCUGAUAUCAGUATT against Olfr370 | inactive: -0.821
41 | GGAAUCCUCUAAAUGACCUTT against V1rd22 | inactive: 1.74
42 | GAGCUAUGUUCUUGGAUGATT against V1ra4 | inactive: -0.0592
43 | GGUGCUAAGUUCAAAGUCGTT against Pdcd11 | inactive: 0.421
44 | GGGAGGUGCAGAUAGGAUUTT against Csrp1 | inactive: 1.55
45 | GAUGCACACGUGGGAAGACTT against 2210021J22Rik | inactive: -1.92
46 | GGCUCUGAAUGUCACAACCTT against Il2rb | inactive: 0.572
47 | GGGACCACUGGACAUUGAATT against Cxadr | inactive: -1.45
48 | GGAGAAAGAAAUCCUUCUGTT against Bag2 | inactive: 0.213
49 | GGCAAACAUUUCAAAUACATT against Tgm4 | inactive: -1.17
50 | GGAAGUCUCUGUACAUCUUTT against Chuk | inactive: -1.22
51 | GGGCUUCUUCCUCGUCUCUTT against Indo | inactive: 0.313
52 | CGGUCAUUUGAAGUAGGAATT against Mum1 | inactive: -0.378

Given as labelled records: part of the list above
GGAGAAAGAAAUCCUUCUGTT against Bag2
  z-score: inactive: 0.213
GGCAAACAUUUCAAAUACATT against Tgm4
  z-score: inactive: -1.17
GGAAGUCUCUGUACAUCUUTT against Chuk
  z-score: inactive: -1.22
GGGCUUCUUCCUCGUCUCUTT against Indo
  z-score: inactive: 0.313
